These are yes or no findings as the source states them, for the method shown. In cells and extracts the contact can be indirect. Some results given as binding are weak or reduced against the parent protein; the word gives no strength.
Target: T1, Tripartite motif containing 24 (human (endogenous in HT-29 and Caco-2)) (UniProt O15164)
T1 sequence: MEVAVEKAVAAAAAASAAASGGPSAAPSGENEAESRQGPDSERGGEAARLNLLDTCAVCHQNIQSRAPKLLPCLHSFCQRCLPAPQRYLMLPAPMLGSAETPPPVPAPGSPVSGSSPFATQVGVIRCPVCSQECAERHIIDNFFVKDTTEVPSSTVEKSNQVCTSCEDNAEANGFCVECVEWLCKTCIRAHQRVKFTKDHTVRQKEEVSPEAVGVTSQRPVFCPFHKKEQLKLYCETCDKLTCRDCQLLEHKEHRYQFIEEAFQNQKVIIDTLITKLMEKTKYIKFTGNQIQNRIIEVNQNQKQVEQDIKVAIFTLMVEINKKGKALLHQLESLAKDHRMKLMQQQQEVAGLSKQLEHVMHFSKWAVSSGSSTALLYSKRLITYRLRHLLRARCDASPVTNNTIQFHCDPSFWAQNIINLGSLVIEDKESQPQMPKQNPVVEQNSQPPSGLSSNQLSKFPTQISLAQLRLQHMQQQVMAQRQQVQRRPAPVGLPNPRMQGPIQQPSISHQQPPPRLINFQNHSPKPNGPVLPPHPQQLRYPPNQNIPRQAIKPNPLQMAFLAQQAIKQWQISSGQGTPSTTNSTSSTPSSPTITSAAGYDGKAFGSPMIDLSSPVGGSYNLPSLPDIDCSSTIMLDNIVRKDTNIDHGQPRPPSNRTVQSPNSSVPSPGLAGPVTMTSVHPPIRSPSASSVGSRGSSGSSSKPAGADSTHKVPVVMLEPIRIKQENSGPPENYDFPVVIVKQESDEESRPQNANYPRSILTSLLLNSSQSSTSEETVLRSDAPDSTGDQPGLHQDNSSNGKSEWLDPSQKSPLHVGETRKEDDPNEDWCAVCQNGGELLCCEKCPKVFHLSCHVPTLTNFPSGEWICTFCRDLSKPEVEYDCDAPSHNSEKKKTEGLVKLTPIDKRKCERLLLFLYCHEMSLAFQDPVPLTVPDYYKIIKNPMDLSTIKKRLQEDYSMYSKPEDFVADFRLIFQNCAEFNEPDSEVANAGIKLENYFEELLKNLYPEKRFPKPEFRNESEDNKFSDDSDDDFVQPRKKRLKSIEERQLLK
Assay: co-IP; 1 mg lysate of HT-29 or Caco-2 cells (IP lysis buffer) with 2 ug anti-FBXW7 or anti-TRIM24 antibody or normal IgG, 4 °C overnight; Protein A/G beads 4 °C 4 h; Western blot; also in cells transfected with sh-circ_RNF13 (increased association)

Sequences of proteins named here, by UniProt entry; tags and fusion partners are left off.
UniProt Q969H0: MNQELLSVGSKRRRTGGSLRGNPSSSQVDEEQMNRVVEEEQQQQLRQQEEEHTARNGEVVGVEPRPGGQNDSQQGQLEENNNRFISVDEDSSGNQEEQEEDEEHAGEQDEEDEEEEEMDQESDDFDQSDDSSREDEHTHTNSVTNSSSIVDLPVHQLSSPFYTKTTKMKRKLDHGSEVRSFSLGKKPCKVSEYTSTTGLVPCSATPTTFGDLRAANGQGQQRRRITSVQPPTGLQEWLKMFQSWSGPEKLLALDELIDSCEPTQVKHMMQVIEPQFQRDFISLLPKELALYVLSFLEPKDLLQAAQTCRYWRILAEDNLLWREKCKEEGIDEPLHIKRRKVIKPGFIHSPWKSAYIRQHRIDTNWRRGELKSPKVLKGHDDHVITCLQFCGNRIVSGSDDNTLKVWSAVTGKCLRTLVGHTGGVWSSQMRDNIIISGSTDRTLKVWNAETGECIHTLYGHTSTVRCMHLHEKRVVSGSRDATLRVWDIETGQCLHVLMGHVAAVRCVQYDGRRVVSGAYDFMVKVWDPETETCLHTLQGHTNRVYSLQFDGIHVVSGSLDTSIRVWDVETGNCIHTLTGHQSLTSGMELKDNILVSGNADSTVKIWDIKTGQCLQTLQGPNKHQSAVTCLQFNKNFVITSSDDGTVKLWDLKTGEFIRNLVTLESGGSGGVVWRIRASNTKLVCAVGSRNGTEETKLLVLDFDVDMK

binding: binds
Substance: F-box and WD repeat domain-containing 7 (from UniProt Q969H0 1-707)
